Consider 39 targets from the supplement of paper PMC10849652.

Sequences of proteins named here, by UniProt entry; tags and fusion partners are left off. A change or cut given only in a name is not applied to a line headed by its entry.
UniProt Q96S82: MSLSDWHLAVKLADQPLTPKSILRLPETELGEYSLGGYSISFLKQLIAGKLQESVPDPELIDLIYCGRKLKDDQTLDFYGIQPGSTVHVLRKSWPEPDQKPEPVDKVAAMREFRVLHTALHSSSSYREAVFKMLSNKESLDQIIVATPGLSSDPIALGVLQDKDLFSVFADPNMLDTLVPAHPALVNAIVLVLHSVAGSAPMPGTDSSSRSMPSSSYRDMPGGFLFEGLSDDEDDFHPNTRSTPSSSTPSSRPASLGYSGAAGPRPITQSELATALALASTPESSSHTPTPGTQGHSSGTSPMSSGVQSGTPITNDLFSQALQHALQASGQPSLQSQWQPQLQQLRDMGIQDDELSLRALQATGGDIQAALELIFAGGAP
UniProt O94966: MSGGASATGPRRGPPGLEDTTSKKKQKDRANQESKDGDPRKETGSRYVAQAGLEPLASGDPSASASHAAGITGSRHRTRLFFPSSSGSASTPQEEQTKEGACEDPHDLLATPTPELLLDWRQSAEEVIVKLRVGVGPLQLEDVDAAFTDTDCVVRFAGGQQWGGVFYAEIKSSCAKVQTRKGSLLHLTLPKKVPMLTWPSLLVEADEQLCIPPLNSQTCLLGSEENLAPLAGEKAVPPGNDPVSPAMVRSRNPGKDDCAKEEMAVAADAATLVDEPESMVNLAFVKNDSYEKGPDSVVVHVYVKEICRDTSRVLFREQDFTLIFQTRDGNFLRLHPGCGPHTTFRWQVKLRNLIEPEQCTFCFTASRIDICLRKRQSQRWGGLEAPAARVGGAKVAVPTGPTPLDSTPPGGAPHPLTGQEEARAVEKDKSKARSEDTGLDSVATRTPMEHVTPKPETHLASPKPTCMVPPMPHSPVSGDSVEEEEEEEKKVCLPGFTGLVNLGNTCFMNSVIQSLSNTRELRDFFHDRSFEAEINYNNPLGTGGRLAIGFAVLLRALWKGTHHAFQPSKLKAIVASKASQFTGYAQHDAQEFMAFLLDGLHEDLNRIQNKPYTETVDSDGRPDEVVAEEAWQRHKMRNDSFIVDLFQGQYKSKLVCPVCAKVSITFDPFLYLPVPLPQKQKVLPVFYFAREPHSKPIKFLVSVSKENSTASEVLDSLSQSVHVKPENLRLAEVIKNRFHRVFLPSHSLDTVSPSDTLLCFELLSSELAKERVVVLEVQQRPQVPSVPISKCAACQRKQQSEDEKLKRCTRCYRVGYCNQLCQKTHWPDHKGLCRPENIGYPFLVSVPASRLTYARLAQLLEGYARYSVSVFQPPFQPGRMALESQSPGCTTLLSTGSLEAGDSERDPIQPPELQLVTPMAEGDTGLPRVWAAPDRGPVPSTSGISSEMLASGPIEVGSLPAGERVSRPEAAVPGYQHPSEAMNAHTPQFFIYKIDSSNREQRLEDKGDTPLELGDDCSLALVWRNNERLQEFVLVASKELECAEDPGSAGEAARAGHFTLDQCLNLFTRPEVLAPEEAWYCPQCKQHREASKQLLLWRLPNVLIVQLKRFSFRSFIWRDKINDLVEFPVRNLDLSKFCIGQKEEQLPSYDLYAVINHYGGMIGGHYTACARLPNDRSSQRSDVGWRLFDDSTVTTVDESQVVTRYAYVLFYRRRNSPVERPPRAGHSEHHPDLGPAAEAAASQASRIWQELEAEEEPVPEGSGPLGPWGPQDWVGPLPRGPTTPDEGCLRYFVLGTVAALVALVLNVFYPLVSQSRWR
UniProt P10746: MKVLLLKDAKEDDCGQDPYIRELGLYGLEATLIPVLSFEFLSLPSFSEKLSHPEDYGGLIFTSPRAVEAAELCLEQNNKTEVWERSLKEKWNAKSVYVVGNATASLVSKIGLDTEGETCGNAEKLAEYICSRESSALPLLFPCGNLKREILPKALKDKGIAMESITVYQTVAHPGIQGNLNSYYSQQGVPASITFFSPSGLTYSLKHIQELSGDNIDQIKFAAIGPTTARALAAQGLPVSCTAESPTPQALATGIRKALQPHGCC
UniProt O94874: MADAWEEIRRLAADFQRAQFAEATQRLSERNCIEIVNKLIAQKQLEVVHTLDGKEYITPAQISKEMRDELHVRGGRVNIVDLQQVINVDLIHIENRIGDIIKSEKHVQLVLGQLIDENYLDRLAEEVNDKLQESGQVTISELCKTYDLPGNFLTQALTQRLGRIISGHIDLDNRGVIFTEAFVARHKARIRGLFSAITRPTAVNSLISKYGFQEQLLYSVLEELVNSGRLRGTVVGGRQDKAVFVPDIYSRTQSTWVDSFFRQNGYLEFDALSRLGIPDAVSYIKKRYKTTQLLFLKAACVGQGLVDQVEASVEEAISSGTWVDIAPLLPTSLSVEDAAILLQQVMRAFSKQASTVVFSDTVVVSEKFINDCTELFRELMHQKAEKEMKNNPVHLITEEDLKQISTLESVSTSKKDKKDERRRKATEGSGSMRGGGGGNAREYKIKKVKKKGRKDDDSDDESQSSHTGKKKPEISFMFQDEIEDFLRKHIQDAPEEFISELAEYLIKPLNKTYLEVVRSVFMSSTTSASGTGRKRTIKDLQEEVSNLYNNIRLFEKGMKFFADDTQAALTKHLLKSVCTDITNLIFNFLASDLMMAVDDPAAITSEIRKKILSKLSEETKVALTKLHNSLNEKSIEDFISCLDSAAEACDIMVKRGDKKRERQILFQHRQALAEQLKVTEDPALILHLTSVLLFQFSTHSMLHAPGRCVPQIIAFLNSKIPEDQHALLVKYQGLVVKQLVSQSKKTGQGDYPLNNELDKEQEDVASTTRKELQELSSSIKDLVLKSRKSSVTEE
UniProt Q04323: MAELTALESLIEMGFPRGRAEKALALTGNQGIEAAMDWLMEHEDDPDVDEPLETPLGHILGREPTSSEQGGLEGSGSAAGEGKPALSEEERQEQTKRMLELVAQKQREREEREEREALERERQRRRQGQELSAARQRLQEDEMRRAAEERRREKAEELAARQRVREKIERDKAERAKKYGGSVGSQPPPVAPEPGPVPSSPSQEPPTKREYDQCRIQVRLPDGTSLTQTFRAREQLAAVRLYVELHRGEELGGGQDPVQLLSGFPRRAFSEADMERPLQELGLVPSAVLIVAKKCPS
UniProt P50552: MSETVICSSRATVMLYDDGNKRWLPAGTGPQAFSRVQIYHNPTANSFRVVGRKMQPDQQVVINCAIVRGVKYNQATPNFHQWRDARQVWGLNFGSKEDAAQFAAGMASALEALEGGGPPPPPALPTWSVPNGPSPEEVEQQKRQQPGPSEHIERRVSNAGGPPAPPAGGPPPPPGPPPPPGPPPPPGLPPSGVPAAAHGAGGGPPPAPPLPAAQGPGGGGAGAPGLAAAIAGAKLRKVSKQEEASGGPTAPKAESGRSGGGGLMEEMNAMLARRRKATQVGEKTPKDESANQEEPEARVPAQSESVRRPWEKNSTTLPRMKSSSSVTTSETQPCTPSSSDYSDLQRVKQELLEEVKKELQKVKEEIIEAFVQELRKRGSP
UniProt O95155, whole entry, looked up: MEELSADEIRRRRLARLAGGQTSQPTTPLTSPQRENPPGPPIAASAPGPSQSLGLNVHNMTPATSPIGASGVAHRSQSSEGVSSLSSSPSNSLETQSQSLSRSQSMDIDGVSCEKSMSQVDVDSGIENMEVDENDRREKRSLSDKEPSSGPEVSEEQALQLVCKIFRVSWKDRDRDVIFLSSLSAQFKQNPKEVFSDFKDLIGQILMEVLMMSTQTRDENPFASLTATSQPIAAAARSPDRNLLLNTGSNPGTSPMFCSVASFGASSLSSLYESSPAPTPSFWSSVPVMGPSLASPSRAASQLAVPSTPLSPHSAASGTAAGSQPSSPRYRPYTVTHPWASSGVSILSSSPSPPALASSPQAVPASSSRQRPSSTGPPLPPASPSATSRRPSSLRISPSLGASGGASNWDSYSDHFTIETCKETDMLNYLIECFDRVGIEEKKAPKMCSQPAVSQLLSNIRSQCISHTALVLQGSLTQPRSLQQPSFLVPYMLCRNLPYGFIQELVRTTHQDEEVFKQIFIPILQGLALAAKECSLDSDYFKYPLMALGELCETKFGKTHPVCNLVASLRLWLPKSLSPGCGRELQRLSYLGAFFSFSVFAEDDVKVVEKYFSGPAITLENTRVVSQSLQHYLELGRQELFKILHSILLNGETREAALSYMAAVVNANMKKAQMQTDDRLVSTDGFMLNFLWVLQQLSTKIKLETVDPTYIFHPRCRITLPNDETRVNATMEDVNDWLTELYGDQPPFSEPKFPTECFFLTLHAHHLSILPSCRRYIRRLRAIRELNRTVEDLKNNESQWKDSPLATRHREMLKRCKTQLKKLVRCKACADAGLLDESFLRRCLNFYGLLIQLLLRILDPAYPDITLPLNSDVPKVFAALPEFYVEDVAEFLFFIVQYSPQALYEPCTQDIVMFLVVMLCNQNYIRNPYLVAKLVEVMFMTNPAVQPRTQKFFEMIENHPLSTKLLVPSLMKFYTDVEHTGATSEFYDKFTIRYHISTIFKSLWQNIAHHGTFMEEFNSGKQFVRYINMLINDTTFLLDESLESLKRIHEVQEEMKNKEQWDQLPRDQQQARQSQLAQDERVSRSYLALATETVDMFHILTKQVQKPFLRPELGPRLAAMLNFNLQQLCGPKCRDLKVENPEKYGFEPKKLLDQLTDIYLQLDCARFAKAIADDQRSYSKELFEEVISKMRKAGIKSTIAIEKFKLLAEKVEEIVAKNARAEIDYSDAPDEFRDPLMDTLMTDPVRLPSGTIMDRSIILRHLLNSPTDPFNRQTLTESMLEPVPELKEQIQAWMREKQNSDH
UniProt Q9UHD9, whole entry, looked up: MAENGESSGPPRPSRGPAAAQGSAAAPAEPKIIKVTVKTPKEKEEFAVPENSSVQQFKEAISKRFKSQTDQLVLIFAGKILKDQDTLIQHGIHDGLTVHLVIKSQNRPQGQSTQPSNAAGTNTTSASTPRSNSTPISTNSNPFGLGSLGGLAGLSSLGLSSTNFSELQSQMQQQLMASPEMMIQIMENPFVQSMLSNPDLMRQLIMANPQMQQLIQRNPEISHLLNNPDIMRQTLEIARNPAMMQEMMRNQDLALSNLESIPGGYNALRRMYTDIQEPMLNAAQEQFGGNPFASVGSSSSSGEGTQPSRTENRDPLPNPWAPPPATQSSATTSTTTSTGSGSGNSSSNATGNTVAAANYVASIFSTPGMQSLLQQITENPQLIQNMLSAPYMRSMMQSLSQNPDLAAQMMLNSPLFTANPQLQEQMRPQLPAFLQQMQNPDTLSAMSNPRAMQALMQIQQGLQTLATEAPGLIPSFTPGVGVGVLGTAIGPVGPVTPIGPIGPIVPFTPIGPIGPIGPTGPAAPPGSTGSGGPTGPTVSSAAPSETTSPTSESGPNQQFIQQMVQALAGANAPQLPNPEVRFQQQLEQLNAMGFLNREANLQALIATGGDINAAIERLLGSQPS
UniProt P61960, whole entry, looked up: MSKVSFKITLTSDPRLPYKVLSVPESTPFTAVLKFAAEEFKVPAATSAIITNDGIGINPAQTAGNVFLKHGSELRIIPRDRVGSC
UniProt Q93009, whole entry, looked up: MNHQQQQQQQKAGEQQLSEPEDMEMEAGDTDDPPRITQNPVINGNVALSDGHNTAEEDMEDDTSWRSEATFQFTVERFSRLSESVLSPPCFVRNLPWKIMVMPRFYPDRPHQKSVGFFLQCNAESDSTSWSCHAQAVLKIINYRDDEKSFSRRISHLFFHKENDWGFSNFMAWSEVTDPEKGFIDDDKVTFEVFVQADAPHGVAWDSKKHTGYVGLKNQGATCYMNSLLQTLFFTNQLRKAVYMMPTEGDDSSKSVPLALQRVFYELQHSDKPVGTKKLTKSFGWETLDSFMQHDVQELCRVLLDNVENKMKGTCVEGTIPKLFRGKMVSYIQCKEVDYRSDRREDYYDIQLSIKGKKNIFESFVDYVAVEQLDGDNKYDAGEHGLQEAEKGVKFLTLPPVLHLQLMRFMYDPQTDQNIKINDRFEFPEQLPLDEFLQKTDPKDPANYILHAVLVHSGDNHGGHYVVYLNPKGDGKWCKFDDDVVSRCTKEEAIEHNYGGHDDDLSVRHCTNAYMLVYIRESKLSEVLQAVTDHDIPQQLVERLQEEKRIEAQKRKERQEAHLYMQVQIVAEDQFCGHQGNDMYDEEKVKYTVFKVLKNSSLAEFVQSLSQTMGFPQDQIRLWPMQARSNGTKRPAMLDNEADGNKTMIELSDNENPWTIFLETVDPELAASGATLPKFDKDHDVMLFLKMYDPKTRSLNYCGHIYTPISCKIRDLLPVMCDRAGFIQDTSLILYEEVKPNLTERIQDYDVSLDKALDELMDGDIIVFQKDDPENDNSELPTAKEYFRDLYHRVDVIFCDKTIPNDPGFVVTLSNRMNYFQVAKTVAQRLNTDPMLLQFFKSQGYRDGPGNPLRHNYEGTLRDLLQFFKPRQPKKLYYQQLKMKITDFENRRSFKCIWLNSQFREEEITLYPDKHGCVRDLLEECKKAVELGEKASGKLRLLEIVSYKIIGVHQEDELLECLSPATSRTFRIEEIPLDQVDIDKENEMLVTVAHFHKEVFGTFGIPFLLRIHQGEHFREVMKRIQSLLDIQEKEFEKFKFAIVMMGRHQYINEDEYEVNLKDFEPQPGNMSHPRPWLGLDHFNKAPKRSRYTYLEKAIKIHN

Some of the results follow.

Compound in one assay: C1=CC=C2C(=C1)C3=NNC4=CC=CC(=C43)C2=O
The experiment in a line: log2 fold change, soluble protein after heating vs DMSO (PISA); higher = thermal stabilisation; K562 cells, 10 uM, 30 min; active = over 0.2 and 3.5 SD of the protein, either way, in both replicates (recomputed). An outline of the steps:
(§1)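 Aliquots of K562 cells (2×10^6 cells/mL) treated with 10 μM compound for 30 min were heated for 3 min over 48°C-58°C. After pooling and extraction in PBS with 0.5% NP-40 at 4°C, soluble protein from a 21,000xg, 90 min spin was quantified by TMTpro 16plex LC-MS/MS with channel sums equalised. Thermal stability is expressed against control samples, from duplicates, as a log2 fold change.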
VANGL1 (UniProt Q8TAA9): the log2 fold change is inactive: -0.087.
As to URGCP (UniProt Q8TCY9), the log2 fold change is inactive: -0.095.
The same measure, in the same setting: the result for VAT1 (UniProt Q99536) reads inactive: -0.038; that for UBL7 (UniProt Q96S82), inactive: 0.043; that for USP10 isoform 2 (UniProt Q14694), inactive: -0.057.
On the same count and under the same terms, the result for UBXN7 (UniProt O94888) reads inactive: -0.023; that for USP19 isoform 6 (UniProt O94966), inactive: -0.016; that for UBL5 (UniProt Q9BZL1), inactive: -0.004.
As for UQCRH (UniProt P07919), the log2 fold change is inactive: -0.095.
On the same count and under the same terms, the result for UROS (UniProt P10746) reads inactive: 0.002.
Same read-out and setting: the value for UBR5 (UniProt O95071) was inactive: -0.136; that for UBE3D (UniProt Q7Z6J8) was inactive: -0.006; that for UFL1 (UniProt O94874) was inactive: 0.096.
With UTP14A (UniProt Q9BVJ6), the log2 fold change was inactive: -0.045.
Same read-out and setting: the value for UBQLN1 (UniProt Q9UMX0) was inactive: 0.016; that for UQCRQ (UniProt O14949) was inactive: 0.025; that for UFD1 isoform 1 (UniProt Q92890) was inactive: -0.021.
Take UNC45A (UniProt Q9H3U1): the log2 fold change was inactive: 0.025.
UQCR10 (UniProt Q9UDW1): the log2 fold change is inactive: -0.003.
On the same count and under the same terms, the result for UBXN1 (UniProt Q04323) reads inactive: -0.001; that for VARS (UniProt P26640), inactive: 0.014; that for UQCRB (UniProt P14927), inactive: -0.012.
For the target USP47 (UniProt Q96K76), the log2 fold change is inactive: 0.
Same read-out and setting: the value for VASP (UniProt P50552) was inactive: 0.027; that for UCK1 (UniProt Q9HA47) was inactive: -0.002; that for USE1 (UniProt Q9NZ43) was inactive: -0.052.
As to UBE3C (UniProt Q15386), the log2 fold change is inactive: -0.02.
Still for that read-out and setting: the value for UBE4B isoform 4 (UniProt O95155) was inactive: -0.013; that for UBR7 (UniProt Q8N806) was inactive: -0.038; that for UBQLN2 (UniProt Q9UHD9) was inactive: 0.015.
On the same count and under the same terms, the value for UHRF1BP1 (UniProt Q6BDS2) was inactive: -0.009.
Turning to UTP3 (UniProt Q9NQZ2), the log2 fold change was inactive: -0.004.
For USP30 (UniProt Q70CQ3), the log2 fold change is inactive: 0.083.
With UFM1 (UniProt P61960), the log2 fold change is inactive: 0.172.
Same read-out and setting: the result for USP7 (UniProt Q93009) reads inactive: 0.085; that for UGGT1 (UniProt Q9NYU2), inactive: 0.019.
Turning to VAPA isoform 2 (UniProt Q9P0L0), the log2 fold change is inactive: -0.015.
The same measure, in the same setting: the value for VARS2, A0A0G2JL52 was inactive: 0.003; that for USP24 (UniProt Q9UPU5) was inactive: 0.094.

Compound in the next assay: C1CCN(C1)C(=O)NC2=CC=CC(=C2)NC3=NC=C(C(=N3)NCCC4=CN=CN4)Br
The assay is described as above. The method, boiled down: as §1
With VANGL1 (UniProt Q8TAA9), the log2 fold change was inactive: -0.106.
Still for that read-out and setting: the value for URGCP (UniProt Q8TCY9) was inactive: 0.077; that for VAT1 (UniProt Q99536) was inactive: 0.008; that for UBL7 (UniProt Q96S82) was inactive: -0.075.
Turning to USP10 isoform 2 (UniProt Q14694), the log2 fold change is inactive: 0.039.
On the same count and under the same terms, the result for UBXN7 (UniProt O94888) reads inactive: -0.009.
On to USP19 isoform 6 (UniProt O94966), for which the log2 fold change is inactive: -0.019.
As for UBL5 (UniProt Q9BZL1), the log2 fold change was inactive: 0.012.
For the target UQCRH (UniProt P07919), the log2 fold change was inactive: 0.036.
As to UROS (UniProt P10746), the log2 fold change is inactive: -0.071.
Same read-out and setting: the value for UBR5 (UniProt O95071) was inactive: 0.024; that for UBE3D (UniProt Q7Z6J8) was inactive: -0.114.
Still for that read-out and setting: the result for UFL1 (UniProt O94874) reads inactive: -0.012; that for UTP14A (UniProt Q9BVJ6), inactive: 0.006.
Same read-out and setting: the value for UBQLN1 (UniProt Q9UMX0) was inactive: -0.004; that for UQCRQ (UniProt O14949) was inactive: 0.027.
In the case of UFD1 isoform 1 (UniProt Q92890), the log2 fold change is inactive: -0.036.
On the same count and under the same terms, the value for UNC45A (UniProt Q9H3U1) was inactive: -0.086; that for UQCR10 (UniProt Q9UDW1) was inactive: 0.006; that for UBXN1 (UniProt Q04323) was inactive: -0.004.
With VARS (UniProt P26640), the log2 fold change was inactive: 0.017.
For UQCRB (UniProt P14927), the log2 fold change is inactive: 0.008.
Same read-out and setting: the value for USP47 (UniProt Q96K76) was inactive: -0.05; that for VASP (UniProt P50552) was inactive: -0.088; that for UCK1 (UniProt Q9HA47) was inactive: -0.011.
The same measure, in the same setting: the result for USE1 (UniProt Q9NZ43) reads inactive: 0.003.
UBE3C (UniProt Q15386): the log2 fold change was inactive: -0.014.
Still for that read-out and setting: the result for UBE4B isoform 4 (UniProt O95155) reads inactive: -0.008; that for UBR7 (UniProt Q8N806), inactive: -0.011.
As to UBQLN2 (UniProt Q9UHD9), the log2 fold change was inactive: -0.045.
Turning to UHRF1BP1 (UniProt Q6BDS2), the log2 fold change is inactive: -0.013.
On to UTP3 (UniProt Q9NQZ2), for which the log2 fold change is inactive: 0.006.
Turning to USP30 (UniProt Q70CQ3), the log2 fold change is inactive: 0.013.
On the same count and under the same terms, the result for UFM1 (UniProt P61960) reads inactive: -0.297; that for USP7 (UniProt Q93009), inactive: -0.04.
On the same count and under the same terms, the result for UGGT1 (UniProt Q9NYU2) reads inactive: -0.015; that for VAPA isoform 2 (UniProt Q9P0L0), inactive: -0.005.
The same measure, in the same setting: the result for VARS2, A0A0G2JL52 reads inactive: 0.006.
Consider USP24 (UniProt Q9UPU5), for which the log2 fold change is inactive: 0.181.
